The list is a part of this screen's results and no random one: its compounds were picked by chemical class. Other doses and runs of a compound may be missing. T/C gives the treated animals as a percentage of the vehicle group. Some entries give survivors of the animals treated and no T/C: the source files T/C as zero there, which appears to mark a toxic dose or a test without result, not a measured value. Some survivor counts are full or nearly so, which does not show that the dose was tolerated: the source hardly ever lists a survival T/C far under the control, and the zero likely stands for such cases as well. Counts of survivors are from the toxicity check (mostly the fifth day) where no day follows; animals may have died later. Schedules are NCI's codes, taken here to give the interval after Q, in days (D) or hours (H), and the number of doses after X. Where survival is the endpoint, this PubChem deposit counts one and a half times the control or more as active, and values a quarter to a half above the control carry no call in these data; other NCI protocols may use other cut-offs. Some entries were tested several times; their values stand side by side, smallest first.
System: AK4 lymphoid leukemia ip, C3AKF1 mice, survival
Experiment: NCI In Vivo Anticancer Drug Screen. Data for tumor model AK4 Lymphoid Leukemia (intraperitoneal) in C3AKF1 (CHKRF1) mice
Conditions: T/C endpoint: median survival time, schedule: Q01DX010 (ip), vehicle: saline, higher T/C = longer survival
Procedure: The antitumor activity of compounds was measured in mice bearing transplantable tumors. Survival or tumor size were measured and the results are expressed as the measurement made in the treated group (T) divided by the measurement made in the vehicle treated control group (C). The tumor model used in this assay is AK4 Lymphoid Leukemia (intraperitoneal) in C3AKF1 (CHKRF1) mice

SMILES | T/C (dose: 1.25 mg/kg/injection) | T/C (dose: 2.5 mg/kg/injection) | T/C (dose: 5.0 mg/kg/injection) | T/C (dose: 10.0 mg/kg/injection) | T/C (dose: 20.0 mg/kg/injection) | T/C (dose: 0.5 mg/kg/injection) | T/C (dose: 1.0 mg/kg/injection) | T/C (dose: 2.0 mg/kg/injection) | T/C (dose: 4.0 mg/kg/injection) | survivor count (dose: 8.0 mg/kg/injection)
NC1CCCCC1.O=P(O)(N(CCCl)CCCl)N1CC1 | 105 % of control | 105 and 138 % of control | 120 and 144 % of control | 120 and 155 % of control | 100 % of control | – | – | – | – | –
Cc1[nH]c(=O)[nH]c(=O)c1N(CCCl)CCCl | – | – | – | – | – | 116 % of control | 111 and 122 % of control | 116 and 144 % of control | 111 and 116 % of control | 6 of 6

Source: PubChem BioAssay AID236 (DTP/NCI, 2004)
